Our source for the binding values is publication PMC9870992.

Protein sequences, listed by entry. Tags and fused reporters are not part of them.
UniProt P78347: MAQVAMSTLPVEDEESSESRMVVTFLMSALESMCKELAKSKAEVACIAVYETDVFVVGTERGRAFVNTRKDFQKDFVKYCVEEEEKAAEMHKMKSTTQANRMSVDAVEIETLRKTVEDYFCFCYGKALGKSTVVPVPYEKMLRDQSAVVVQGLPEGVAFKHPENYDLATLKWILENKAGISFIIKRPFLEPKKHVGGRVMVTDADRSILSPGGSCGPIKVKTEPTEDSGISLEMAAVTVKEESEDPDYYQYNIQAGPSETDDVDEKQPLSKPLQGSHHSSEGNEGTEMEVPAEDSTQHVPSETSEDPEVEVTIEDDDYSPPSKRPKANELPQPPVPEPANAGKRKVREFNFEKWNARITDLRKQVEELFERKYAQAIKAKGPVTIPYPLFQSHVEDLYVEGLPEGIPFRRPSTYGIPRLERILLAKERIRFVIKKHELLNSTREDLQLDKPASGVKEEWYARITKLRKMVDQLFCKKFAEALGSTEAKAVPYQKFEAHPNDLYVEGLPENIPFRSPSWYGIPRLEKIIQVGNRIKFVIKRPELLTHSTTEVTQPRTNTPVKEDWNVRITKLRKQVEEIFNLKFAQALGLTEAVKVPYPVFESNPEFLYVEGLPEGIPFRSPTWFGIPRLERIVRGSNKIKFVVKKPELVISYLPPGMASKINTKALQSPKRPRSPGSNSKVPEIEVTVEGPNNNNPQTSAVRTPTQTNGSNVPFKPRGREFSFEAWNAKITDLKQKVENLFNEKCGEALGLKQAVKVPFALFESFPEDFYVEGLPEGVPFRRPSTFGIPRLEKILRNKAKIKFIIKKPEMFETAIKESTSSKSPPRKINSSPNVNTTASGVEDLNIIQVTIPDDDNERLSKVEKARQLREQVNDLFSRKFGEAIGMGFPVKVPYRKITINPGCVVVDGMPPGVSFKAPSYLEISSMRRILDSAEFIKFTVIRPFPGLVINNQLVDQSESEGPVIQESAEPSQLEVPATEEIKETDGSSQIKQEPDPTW

For the assay, the target named is TFII-I-Flag (UniProt P78347). Description: co-IP; HEK293T co-transfected with TFII-I-Flag and TRIM24-Myc; 250 μg nuclear extract in Flag-IP Buffer (50 mM Tris-HCl pH 8.0, 90 mM NaCl, 1 mM EDTA, 1% Triton X-100); anti-Flag IP at 4 °C, protein A/G agarose; blot with Myc antibody.

These are yes or no findings as the source states them, for the method shown. Binding seen in cells or lysates may run through a third protein. Some results given as binding are weak or reduced against the parent protein; the word gives no strength. Tags and fused reporters may be left off the sequences shown.

B1: TRIM24-Myc (protein, UniProt O15164 1-1050)
chain: MEVAVEKAVAAAAAASAAASGGPSAAPSGENEAESRQGPDSERGGEAARLNLLDTCAVCHQNIQSRAPKLLPCLHSFCQRCLPAPQRYLMLPAPMLGSAETPPPVPAPGSPVSGSSPFATQVGVIRCPVCSQECAERHIIDNFFVKDTTEVPSSTVEKSNQVCTSCEDNAEANGFCVECVEWLCKTCIRAHQRVKFTKDHTVRQKEEVSPEAVGVTSQRPVFCPFHKKEQLKLYCETCDKLTCRDCQLLEHKEHRYQFIEEAFQNQKVIIDTLITKLMEKTKYIKFTGNQIQNRIIEVNQNQKQVEQDIKVAIFTLMVEINKKGKALLHQLESLAKDHRMKLMQQQQEVAGLSKQLEHVMHFSKWAVSSGSSTALLYSKRLITYRLRHLLRARCDASPVTNNTIQFHCDPSFWAQNIINLGSLVIEDKESQPQMPKQNPVVEQNSQPPSGLSSNQLSKFPTQISLAQLRLQHMQQQVMAQRQQVQRRPAPVGLPNPRMQGPIQQPSISHQQPPPRLINFQNHSPKPNGPVLPPHPQQLRYPPNQNIPRQAIKPNPLQMAFLAQQAIKQWQISSGQGTPSTTNSTSSTPSSPTITSAAGYDGKAFGSPMIDLSSPVGGSYNLPSLPDIDCSSTIMLDNIVRKDTNIDHGQPRPPSNRTVQSPNSSVPSPGLAGPVTMTSVHPPIRSPSASSVGSRGSSGSSSKPAGADSTHKVPVVMLEPIRIKQENSGPPENYDFPVVIVKQESDEESRPQNANYPRSILTSLLLNSSQSSTSEETVLRSDAPDSTGDQPGLHQDNSSNGKSEWLDPSQKSPLHVGETRKEDDPNEDWCAVCQNGGELLCCEKCPKVFHLSCHVPTLTNFPSGEWICTFCRDLSKPEVEYDCDAPSHNSEKKKTEGLVKLTPIDKRKCERLLLFLYCHEMSLAFQDPVPLTVPDYYKIIKNPMDLSTIKKRLQEDYSMYSKPEDFVADFRLIFQNCAEFNEPDSEVANAGIKLENYFEELLKNLYPEKRFPKPEFRNESEDNKFSDDSDDDFVQPRKKRLKSIEERQLLK
In the case of B1, the binding entry is “binds”.
